Values quoted from earlier work in patent US9198892B2, “Composition and/or method for preventing onset and/or recurrence of cardiovascular events” (MOCHIDA PHARMACEUTICAL CO., LTD., priority 2005, dated 2015).
At least one compound was matched to its structure with a doubt left.

Settings: three- to four-year administration from immediately after Percutaneous Coronary Artery intervention; cited from earlier work

CC(C)n1c(/C=C/C(O)CC(O)CC(=O)O)c(-c2ccc(F)cc2)c2ccccc21 (stereo not shown) [fluvastatin]
onset of the cardiovascular events: repressed the onset of the cardiovascular events
